Test results: patent publication US7709645B2, “Pyrrolo-pyridine kinase modulators” (SGX Pharmaceuticals, Inc., priority 2004, dated 2010)
Some results were stated once for a whole list of compounds, not compound by compound. For at least one compound, name, drawing or mass did not settle the structure.

Sequences of proteins named here, by UniProt entry; tags and fusion partners are left off. Residues count along the entry.
UniProt P08581, 1078-1345 limits assumed: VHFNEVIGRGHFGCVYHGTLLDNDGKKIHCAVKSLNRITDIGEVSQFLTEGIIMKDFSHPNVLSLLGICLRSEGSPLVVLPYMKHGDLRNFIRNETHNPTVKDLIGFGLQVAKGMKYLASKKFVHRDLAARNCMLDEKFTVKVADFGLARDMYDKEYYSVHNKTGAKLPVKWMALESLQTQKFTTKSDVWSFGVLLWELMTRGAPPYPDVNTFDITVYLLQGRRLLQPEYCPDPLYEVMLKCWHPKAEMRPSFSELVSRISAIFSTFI

Molecular target: T1, MET kinase (Homo sapiens, UniProt P08581)
T1 construct: Sf9 insect cell culture expressing the kinase domain of human Met; 6x Histidine tag (TEV-cleavable) (cleaved yes); made in house; host or cells: Sf9 insect cells
Assay: Met Bioassay (luminescence-based enzyme assay, Kinase-Glo)
Format: biochemical
Details: 10 μM ATP
Source text: In addition to the c-Abl PK/LDH coupled assay (above), homogeneous luminescence-based inhibitor screening assays were developed for c-Abl, MET, AurA, and PDK1 kinases (among others). Each of these assays made use of an ATP depletion assay (Kinase-Glo™, Promega Corporation, Madison, Wis.) to quantitate kinase activity. The Kinase-Glo™ format uses a thermostable luciferase to generate luminescent signal from ATP remaining in solution following the kinase reaction. The luminescent signal is inversely correlated with the amount of kinase activity.
Materials: Poly Glu-Tyr (4:1) substrate (Sigma Cat# P-0275), ATP (Sigma Cat#A-3377, FW=551), HEPES buffer, pH 7.5, Bovine serum albumin (BSA) (Roche 92423420), MgCl2, Staurosporine (Streptomyces sp. Sigma Cat#85660-1MG), white Costar 384-well flat-bottom plate (VWR Cat#29444-088). MET kinase (see below), Kinase-Glo™ (Promega Cat#V6712). […]
Standard Assay Setup for 384-well format (20 μl kinase reaction, 40 μl detection reaction): 10 mM MgCl2; 0.3 mg/ml poly Glu-Tyr; 0.1% BSA; 1 μl test compound (in DMSO); 0.4 μg/ml MET kinase; 10 μM ATP; 100 mM HEPES buffer. […] Kinase reactions were incubated at 21° C. for 60 min, then 20 μl of Kinase-Glo™ reagent were added to each well to quench the kinase reaction and initiate the luminescence reaction. After a 20 min incubation at 21° C., the luminescence was detected in a plate-reading luminometer. […]

In the case of `COc1ccccc1-c1c[nH]c2ncc(-c3ccc(CN4CCCN(C)CC4)c(O)c3)cc12` [AE40], the IC50 is reported as < 1 µM.
For `COc1cc(-c2cnc3[nH]cc(-c4ccccc4OC)c3c2)ccc1OC1CCN(C)CC1` [AE66], the IC50 was < 1 µM.
